Data as given in PubChem BioAssay AID1259405 (NCATS, 2018)

Screen: 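Knock-downs that lift recombinant protein yield in hamster ovary cells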 (primary screen)
Cells: Chinese hamster CHO-K1 ovary cells with stable secreted eGFP expression
Knock-down reagent: single siRNA against mouse genes, 0.8 pmol siRNA per well (2 µl of 400 nM stock)
Time to read-out: 3 days
Detection: 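Per-well intracellular GFP measured by laser scanning cytometry, plus viability from ATP luminescence, each relative to plate median of non-targeting control wells, in %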
Scale: GFP, % of control: higher = more GFP per well, higher productivity
Active means: 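Called active when intracellular GFP, relative to negative control, is at or above 120%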
Shown is an unselected part of about 50,000 reagents tested. About 4,000 of all reagents (8%) were called active. 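Mouse siRNA library applied to hamster cells; one well for each siRNA.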 Reagents against one gene are numbered here. Not all columns of the deposit are shown. No sequences are given here.

GFP, % of control, by gene symbol and reagent
Sun3: #1 41 inactive; #2 88.3 inactive; #3 80.2 inactive
Sult5a1: #1 103 inactive; #2 90.1 inactive; #3 91.4 inactive
Impact: #1 67.8 inactive; #2 99.8 inactive; #3 85.1 inactive
Pot1b: #1 68.4 inactive; #2 55.5 inactive; #3 95.3 inactive
Dhh: #1 90.7 inactive; #2 64.9 inactive; #3 117 inactive
Gabarapl2: #1 115 inactive; #2 78.1 inactive
Or7c19: #1 69.6 inactive; #2 79.2 inactive; #3 46 inactive
Or4d6: #1 92.5 inactive; #2 85.5 inactive; #3 56.3 inactive
Max: #1 96.5 inactive; #2 49 inactive; #3 52.5 inactive
Zfp775: #1 62.1 inactive; #2 72.7 inactive; #3 101 inactive
Jade2: #1 110 inactive; #2 74.7 inactive; #3 60 inactive
Rps15a: #1 81.2 inactive; #2 94 inactive; #3 95.1 inactive
Txk: #1 88 inactive; #2 93.4 inactive; #3 64.6 inactive
Srsf4: #1 110 inactive; #2 83 inactive; #3 43.8 inactive
Impa2: #1 68.9 inactive; #2 114 inactive; #3 125 active
Smpx: #1 83.1 inactive; #2 69.3 inactive; #3 64.6 inactive

Active calls, among the entries above:
GFP, % of control, by gene symbol and reagent
Impa2: #3 125 active

Further entries:
GFP, % of control, by gene symbol and reagent
Taar4: #1 71.3 inactive; #2 88.2 inactive; #3 59.1 inactive
Pcgf3: #1 66.5 inactive; #2 69.4 inactive; #3 66.1 inactive
Sypl1: #1 81.9 inactive; #2 129 active
Nfia: #1 92.5 inactive; #2 50.4 inactive; #3 65.9 inactive
Akap8l: #1 76.9 inactive; #2 85.8 inactive
Erp27: #1 108 inactive; #2 72.9 inactive; #3 32.7 inactive
Cnot4: #1 78.5 inactive; #2 65.5 inactive; #3 114 inactive
Tmem129: #1 74.4 inactive; #2 118 inactive; #3 116 inactive
C130050O18Rik: #1 64.3 inactive; #2 73.5 inactive; #3 78.8 inactive
Kctd12: #1 76.7 inactive; #2 80.8 inactive
Kcne4: #1 92.2 inactive; #2 124 active
Asb2: #1 48 inactive; #2 67.7 inactive; #3 106 inactive
Pelo: #1 75.9 inactive; #2 94.6 inactive; #3 118 inactive
Map2k3os: #1 44.3 inactive; #2 93.5 inactive; #3 141 active
